Assay results from the supplement of paper PMC11060735.
Structures can show the parent of a compound that is named as a salt. ± gives the standard deviation of the averaged measurements. The full ranking holds about 1,800 compounds; the median of “GFP- (p16Ink4a-) cell count relative to negative-control wells” is about 0.99, and the lowest 2% start at about 0.5. The list shows a part of the results.

system: mouse p16Ink4a+/- lung fibroblasts (INKBRITE, bleomycin-injured); test: GFP- (p16Ink4a-) cell count relative to negative-control wells (fold of vehicle); higher = more p16Ink4a- cells surviving; settings: 1 µM; 3 days

| SMILES | GFP- |
| --- | --- |
| Cn1cnc([N+](=O)[O-])c1Sc1ncnc2[nH]cnc12 [Azathioprine] | 0.954 |
| Oc1c(Cl)cc(Cl)c2cccnc12 [Chloroxine] | 0.809 |
| COc1cc([C@@H]2c3cc4c(cc3[C@@H](O[C@@H]3O[C@@H]5CO[C@@H](C)O[C@H]5[C@H](O)[C@H]3O)[C@H]3COC(=O)[C@H]23)OCO4)cc(OC)c1O [Etoposide] | 0.985 |
| O=C(O)CCNC(=O)c1ccccc1 [Betamipron] | 1.06 |
| CC(C)OC(=O)C(C)(C)Oc1ccc(C(=O)c2ccc(Cl)cc2)cc1 [Fenofibrate] | 0.949 |
| O=C1[C@H](CC[C@H](O)c2ccc(F)cc2)[C@@H](c2ccc(O)cc2)N1c1ccc(F)cc1 [Ezetimibe] | 0.992 |
| COc1cc(C2Oc3ccc(C4Oc5cc(O)cc(O)c5C(=O)C4O)cc3OC2CO)ccc1O (configuration not stated) [Silymarin] | 1.04 |
| CC(C)(C)c1ccc(-c2nc3ccccc3[nH]2)cc1 | 1.08 |
| NC(=O)[C@@H](CCC(F)(F)F)N(Cc1ccc(-c2ncon2)cc1F)S(=O)(=O)c1ccc(Cl)cc1 [Avagacestat] | 0.921 |
| COC(=O)[C@H]1[C@H]2C[C@@H]3c4[nH]c5cc(OC)ccc5c4CCN3C[C@H]2C[C@@H](OC(=O)c2cc(OC)c(OC)c(OC)c2)[C@@H]1OC [Reserpine] | 0.806 |
| C#C[C@]1(OC(C)=O)CC[C@H]2[C@@H]3CCC4=C[C@@H](OC(C)=O)CC[C@@H]4[C@H]3CC[C@@]21C [Ethynodiol Diacetate] | 0.914 |
| Cc1ccc(C(=O)Nc2cccc(C(F)(F)F)c2)cc1Nc1nc(-c2cccnc2)nc2c1cnn2C | 0.964 |
| C[C@@](Cc1ccc(O)c(O)c1)(NN)C(=O)O [S-(-)-carbidopa, Carbidopa] | 0.981 |
| COC(=O)[C@]12CCC(C)(C)C[C@@H]1[C@@H]1C(=O)C=C3[C@]4(C)C=C(C#N)C(=O)C(C)(C)[C@@H]4CC[C@@]3(C)[C@]1(C)CC2 [Bardoxolone Methyl] | 0.406 |
| Cc1c(-c2ccc(O)cc2)n(Cc2ccc(OCCN3CCCCCC3)cc2)c2ccc(O)cc12 [Bazedoxifene] | 0.948 |
| Nc1nc(Cl)nc2c1ncn2[C@H]1C[C@H](O)[C@@H](CO)O1 [Cladribine] | 0.779 |
| CC(=O)c1c(C)c2cnc(Nc3ccc(N4CCNCC4)cn3)nc2n(C2CCCC2)c1=O [Palbociclib] | 0.847 |
| COC(=O)Nc1nc2cc(Sc3ccccc3)ccc2[nH]1 [Fenbendazole] | 0.741 |
| CN1C(CCl)Nc2cc(Cl)c(S(N)(=O)=O)cc2S1(=O)=O (configuration not stated) [Methyclothiazide] | 0.898 |
| C#C[C@]1(O)CC[C@H]2[C@@H]3CCc4cc(O)ccc4[C@H]3CC[C@@]21C [Ethinyl Estradiol] | 1.04 |
| CC(C(=O)O)c1ccc2c(c1)Cc1cccnc1O2 (configuration not stated) [Pranoprofen] | 1.17 |
| CCOC(=O)[C@H](CCc1ccccc1)N[C@@H](C)C(=O)N1Cc2cc(OC)c(OC)cc2C[C@H]1C(=O)O [Moexipril] | 0.982 |
| CC(C(=O)O)c1cccc(C(=O)c2ccccc2)c1 (configuration not stated) [Ketoprofen] | 1.03 |
| Nc1ccc(S(=O)(=O)Nc2ccccn2)cc1 [Sulfapyridine] | 0.965 |
| C=C1c2cccc(O)c2C(O)=C2C(=O)[C@]3(O)C(O)=C(C(N)=O)C(=O)[C@@H](N(C)C)[C@@H]3[C@@H](O)[C@H]12 [Methacycline] | 1.03 |
| CC(C)CCN1c2nc(Nc3cc(F)c(O)c(F)c3)ncc2N(C)C(=O)C1C (configuration not stated) | 0.995 |

4 compounds from above, ordered by heavy-atom count, smallest number first.

| SMILES | GFP- |
| --- | --- |
| Oc1c(Cl)cc(Cl)c2cccnc12 [Chloroxine] | 0.809 |
| CC(C(=O)O)c1cccc(C(=O)c2ccccc2)c1 (configuration not stated) [Ketoprofen] | 1.03 |
| COC(=O)Nc1nc2cc(Sc3ccccc3)ccc2[nH]1 [Fenbendazole] | 0.741 |
| C=C1c2cccc(O)c2C(O)=C2C(=O)[C@]3(O)C(O)=C(C(N)=O)C(=O)[C@@H](N(C)C)[C@@H]3[C@@H](O)[C@H]12 [Methacycline] | 1.03 |

Additional records

| SMILES | GFP- |
| --- | --- |
| CO/N=C(/C(=O)N[C@H]1C(=O)N2C(C(=O)O)=C(Cn3ccc(=N)n3CCO)CS[C@H]12)c1csc(N)n1 [Cefoselis Sulfate] | 0.918 |
| Cc1cccc(-c2[nH]c(C(C)(C)C)nc2-c2ccc3c(c2)OCO3)n1 | 0.933 |
| CCOC(=O)[C@H]1O[C@@H]1C(=O)N[C@@H](CC(C)C)C(=O)NCCC(C)C [Aloxistatin] | 0.833 |
| Nc1ncnc2[nH]nc(Nc3ccc(F)cc3)c12 | 0.966 |
| CCn1cc(C(=O)O)c(=O)c2cc(F)c(N3CCNC(C)C3)c(F)c21 (configuration not stated) [Lomefloxacin] | 1.07 |
| O=C1c2ccc(Nc3ccc(F)cc3F)cc2CCc2ccc(OC[C@H](O)CO)cc21 [Skepinone-L] | 1.11 |
| COc1ccc(-c2coc3cc(O)cc(O)c3c2=O)cc1 [Biochanin A] | 1.12 |
| CCOc1cc([C@@H](CS(C)(=O)=O)N2C(=O)c3cccc(NC(C)=O)c3C2=O)ccc1OC [Apremilast] | 0.919 |
| CC(C)N(CCC(=O)c1ccc2ccccc2c1)Cc1ccccc1 | 0.897 ± 0.031 |
| Nc1ccc(S(=O)(=O)Nc2ncccn2)cc1 [Sulfadiazine] | 0.885 |
| O=C(O)CCCC[C@@H]1SC[C@@H]2NC(=O)N[C@@H]21 [Biotin, Vitamin B7] | 1.14 |
| CNCCc1ccccn1 [Betahistine] | 1.04 |
| CC(=O)O[C@]1(C(C)=O)CC[C@H]2[C@@H]3C[C@H](C)C4=CC(=O)C=C[C@]4(C)[C@@]3(F)[C@@H](O)C[C@@]21C [Fluorometholone Acetate] | 1.14 |
| NCCCCCC(=O)O [Aminocaproic Acid] | 0.867 |
| CC(C)CCNC(=O)[C@H](CC(C)C)NC(=O)[C@H]1O[C@@H]1C(=O)O [Loxistatin Acid] | 0.941 |
| Cc1ccnc2c1NC(=O)c1cccnc1N2C1CC1 [Nevirapine] | 1.06 |
| CC[C@@H]([C@H](C)O)n1ncn(-c2ccc(N3CCN(c4ccc(OC[C@@H]5CO[C@@](Cn6cncn6)(c6ccc(F)cc6F)C5)cc4)CC3)cc2)c1=O [Posaconazole] | 1.04 |
| Oc1cc2c(cc1O)[C@@H]1c3ccc(O)c(O)c3OC[C@]1(O)C2 [Hematoxylin] | 0.962 |
| CCCCCCCN(CC)CCCC(O)c1ccc(NS(C)(=O)=O)cc1 (configuration not stated) [Ibutilide] | 0.957 |
| COc1ccccc1N1CCN(CCN2C(=O)CC3(CCCC3)CC2=O)CC1 [Bmy 7378 Dihydrochloride] | 1.05 |
| Cc1ccc(-n2nc(C)c(N=Nc3cccc(-c4cccc(C(=O)O)c4)c3O)c2O)cc1C [Eltrombopag] | 0.82 |
| O=C(NS(=O)(=O)c1ccc(Br)s1)c1ccc(Cl)cc1Cl [Tasisulam] | 1.08 |
| CNCc1ccc(-c2[nH]c3cc(F)cc4c3c2CCNC4=O)cc1 [Rucaparib] | 0.817 ± 0.037 |
| CCNC(=O)CCC/C=C\C[C@@H]1[C@@H](/C=C/C(O)CCc2ccccc2)[C@@H](O)C[C@@H]1O (some centres not stated) [Bimatoprost] | 1.14 |
| OC[C@H]1O[C@@H](Oc2cc(O)cc(/C=C/c3ccc(O)cc3)c2)[C@H](O)[C@@H](O)[C@@H]1O [Piceid] | 1.05 |
| CCCNC(=O)NS(=O)(=O)c1ccc(Cl)cc1 [Chlorpropamide] | 0.949 |

| SMILES | GFP- |
| --- | --- |
| O=C1NCC2(CCN(CCc3ccccc3)CC2)O1 [Fenspiride] | 1.05 |
| CNCCCC12CCC(c3ccccc31)c1ccccc12 [Maprotiline] | 0.984 |
| CCCOc1ccc2[nH]c(NC(=O)OC)nc2c1 [Oxybendazole, Oxibendazole] | 0.885 |
| CN(C)c1ccc(-c2nc3c(N4CCN(CC(=O)Nc5nccs5)CC4)c(Cl)cnc3[nH]2)cc1 | 0.866 ± 0.052 |
| O=C(O)Cc1cc(I)c(Oc2ccc(O)c(I)c2)c(I)c1 [Tiratricol] | 0.974 |
| C[C@@H]1O[C@@H](Oc2c(-c3cc(O)c(O)c(O)c3)oc3cc(O)cc(O)c3c2=O)[C@H](O)[C@H](O)[C@H]1O [Myricitrin] | 0.967 |
| CCCCCCCCOc1ccccc1C(=O)Nc1ccc(C(=O)OCC[N+](C)(CC)CC)cc1 [Otilonium Bromide] | 0.987 |
| C[C@H]1[C@H](O)O[C@@H]2O[C@@]3(C)CC[C@H]4[C@H](C)CC[C@@H]1[C@@]24OO3 [Dihydroartemisinin (DHA)] | 0.83 |
| O=C(c1cc(Cc2nnc(O)c3ccccc23)ccc1F)N1CCN(C(=O)C2CC2)CC1 [Olaparib] | 0.867 ± 0.069 |
| COC(=O)C1=CO[C@@H](O)[C@@H]2C(CO)=CC[C@H]12 [Genipin] | 1.09 |
| CCC(C)n1ncn(-c2ccc(N3CCN(c4ccc(OC[C@H]5CO[C@](Cn6cncn6)(c6ccc(Cl)cc6Cl)O5)cc4)CC3)cc2)c1=O (some centres not stated) [Itraconazole] | 1.14 |
| CCOC(=O)[C@H](CCc1ccccc1)N[C@@H](C)C(=O)N1Cc2ccccc2C[C@H]1C(=O)O [Quinapril] | 1.19 |
| Nc1nc(O)c2[nH]nnc2n1 [8-azaguanine] | 0.997 |
| Cc1cncc(CN2CCC(=C3c4ccc(Cl)cc4CCc4cccnc43)CC2)c1 [Rupatadine] | 0.67 |
| O=C1c2c(O)ccc(O)c2C(=O)c2c(NCCNCCO)ccc(NCCNCCO)c21 [Mitoxantrone] | 0.503 |
| NC(=O)c1ccc(I)c([N+](=O)[O-])c1 [Iniparib] | 1.03 ± 0.12 |
| CCOc1nc2cccc(C(=O)O)c2n1Cc1ccc(-c2ccccc2-c2noc(O)n2)cc1 [Azilsartan] | 0.936 |
| N=C(N)/N=C(\N)N1CCOCC1 [Moroxydine Hydrochloride] | 1.09 |
| O=c1cc(-c2ccc(O)cc2)oc2cc(O)cc(O)c12 [Apigenin] | 0.98 |
| Cc1onc(-c2ccccc2Cl)c1C(=O)N[C@@H]1C(=O)N2[C@@H]1SC(C)(C)[C@@H]2C(=O)O [Cloxacillin] | 1.03 |
| Cn1cnc(-c2cc3nccc(Oc4ccc(NC(=S)NC(=O)Cc5ccccc5)cc4F)c3s2)c1 | 0.696 |
| CC(C(O)c1ccc(O)cc1)N1CCC(Cc2ccccc2)CC1 (configuration not stated) [Ifenprodil] | 0.994 |
| CN1CC[C@@H](c2c(O)cc(O)c3c(=O)cc(-c4ccccc4Cl)oc23)[C@@H]1CO | 0.807 |
| CC(C)c1cnn2c(NCc3ccccc3)cc(NCCCCCCN)nc12 | 0.834 |
| O=C1c2c(O)cc(O)cc2O[C@H](c2cc(O)c(O)c(O)c2)[C@H]1O [Dihydromyricetin] | 1.01 |
